Source: ChEMBL document CHEMBL3988442, “University of Dundee, Small-Polar-MMV Screening Library” (2021).

By UniProt entry, the sequences of proteins in these tests, tags left out.
UniProt E9BF75, entry or part of it: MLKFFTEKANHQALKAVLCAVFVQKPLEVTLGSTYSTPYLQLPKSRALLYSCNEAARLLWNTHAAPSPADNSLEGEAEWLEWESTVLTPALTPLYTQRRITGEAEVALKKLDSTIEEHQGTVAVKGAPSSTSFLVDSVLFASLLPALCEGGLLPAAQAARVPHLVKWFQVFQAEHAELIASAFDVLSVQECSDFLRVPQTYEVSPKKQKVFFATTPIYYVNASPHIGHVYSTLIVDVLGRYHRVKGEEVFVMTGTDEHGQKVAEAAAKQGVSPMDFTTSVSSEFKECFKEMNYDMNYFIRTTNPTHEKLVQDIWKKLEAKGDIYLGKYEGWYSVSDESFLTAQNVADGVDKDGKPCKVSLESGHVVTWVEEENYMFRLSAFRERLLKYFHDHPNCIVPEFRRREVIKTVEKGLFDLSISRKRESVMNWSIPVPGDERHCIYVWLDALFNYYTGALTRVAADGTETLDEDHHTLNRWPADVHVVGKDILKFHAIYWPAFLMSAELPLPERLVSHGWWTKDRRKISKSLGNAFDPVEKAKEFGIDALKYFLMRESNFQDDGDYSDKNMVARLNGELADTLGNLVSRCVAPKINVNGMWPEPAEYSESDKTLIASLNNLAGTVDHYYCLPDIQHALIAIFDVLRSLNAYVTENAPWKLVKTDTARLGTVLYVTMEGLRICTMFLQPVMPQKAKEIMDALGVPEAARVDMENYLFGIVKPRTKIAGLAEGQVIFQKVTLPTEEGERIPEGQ

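Primary screen of methionyl-tRNA synthetase; the read-out is not stated. Target: Methionyl-tRNA synthetase (putative), Leishmania donovani (UniProt E9BF75). The test concentration is not given. Values are per cent inhibition. Of about 68,000 compounds tested this way, about 24 (0.035%) reached 50% or more in at least one test.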

Results are percentages, as filed. How 0% and 100% were set is not recorded. Most values in the screen are low, and negative values occur. Compounds were drawn at random from those tested, without regard to their results.

structure,Inhibition
COc1ccccc1C1CNCCN1C(=O)c1ccc(F)cc1 (configuration not stated),12.66
COc1cccc(-c2ncc(CN3C[C@@H]4CC[C@H](C3)N(C)C4=O)s2)c1,20.07
Cc1nn(C)cc1CN(C)C(=O)c1ccncc1,30.02
Cc1nc(C)c(C)c(N2CCC(O)(c3ccc(F)cc3)CC2)n1,20.5
Cc1ccc2c(c1)CN(C(=O)c1cnc(C)cn1)C(CN(C)C)CO2 (configuration not stated),2.604
CC(=O)NCCNC(=O)c1cnc2c(c1)nc(-c1ccccc1Cl)n2C,7.117
CC(=O)c1c(O)n(C)c2ccc(C)cc12,6.842
CN(C)c1ccc(-c2ccnc3c2ccn3C)nn1,8.934
CC(=O)N1CCCN(c2cc(C3CN(C)CCO3)nc(C)n2)CC1 (configuration not stated),11
CCc1nnc(CN2CCCCC2Cn2cncn2)o1 (configuration not stated),3.977
Cc1cc(C(=O)N2CCCC2c2nnc3n2CCCCC3)on1 (configuration not stated),17.62
CC(C)c1cc(C(=O)NCCc2nc(-c3ccncc3)n[nH]2)[nH]n1,8.721
CCc1nc(CSc2nnc(N)n2C2CC2)no1,14.89
CC1CCN(c2ncc3c(n2)CN(c2ccccc2)C3=O)CC1,11.02
Cc1nc(-c2ccco2)ccc1C(=O)N1CCc2nnc(N)cc2C1,12.53
O=C(Cc1ccsc1)N1CCCC(c2n[nH]c3ncccc23)C1 (configuration not stated),2.083
CC(C)(C)OC(=O)CNC(=O)CCc1nnc(-c2ccsc2)o1,11.81
Cc1nn(C)c(N(C)C)c1CNCC(O)COc1cccc(F)c1 (configuration not stated),7.902
COCCc1noc(Cn2ccc3ccccc3c2=O)n1,2.941
FC(F)(F)c1cccc(OC2CCN(Cc3c[nH]cn3)CC2)c1,8.672
CCN(CC1CCOC1)C(=O)c1cn2ccc(C)cc2n1 (configuration not stated),10.15
CSCCN1C(=O)CC(C)(c2ccc(Br)cc2)C1=O (configuration not stated),11.04
COc1cc(OC)cc(C2NC(=O)CN2Cc2ccc(Br)cc2)c1 (configuration not stated),15.32
CCNC(=O)[C@@H]1C[C@H](N)CN1c1cc(C(F)(F)F)nc(N(C)C)n1,7.553
COC(=O)c1cc(NC(=O)CCc2cscn2)ccc1C,13.97
CCNC(=O)NC(=O)CNC(C)(CC)c1nc(C)cs1 (configuration not stated),7.229
Cc1ccc(C(O)CNCc2c(C(C)C)nn(C)c2N(C)C)cc1 (configuration not stated),12.55
O=C(c1ccccn1)N1CCC2(CC1)COC(COCC1CC1)C2 (configuration not stated),9.15
Cc1noc(OCC(=O)N2CCCCC2C)n1 (configuration not stated),8.192
Cc1nccn1C1CCCN(C(=O)Cc2cn3ccccc3n2)C1 (configuration not stated),15.3
Cc1ccc(-c2ncc(C(=O)NS(C)(=O)=O)s2)c(C)c1,0.9202
Cc1cc(NC(=O)CNc2cccc(OC(F)F)c2C)n(C)n1,6.183
Cc1ccc(S(=O)(=O)N2CCCC3(CCCN3S(C)(=O)=O)C2)cc1F (configuration not stated),11.17
CN(CCc1ccccn1)C(=O)C(c1cccnc1)N1CCOCC1 (configuration not stated),18.53
COc1cccc(-n2nnc(C(=O)N3CCNC(=O)C3)c2C)c1,12.27
CCOCc1cncc2c1CCN(C(=O)c1cscn1)C2,13.49
O=C(NCCCC(=O)N1CCN(CC2CC2)c2ccccc21)C1CC1,14.29
Cc1ccnn1CCC(=O)N1CCOC(CCc2ccccc2)C1 (configuration not stated),-3.686
COc1ccc(C(=O)Nc2cc(CC(C)C)nn2C)cc1,11.68
Cc1cc2occ(CC(=O)N3CCC(O)(CN(C)C)C3)c2cc1Cl (configuration not stated),16.43
c1ccc(N2CCOC(Cc3cccnc3)C2)cc1 (configuration not stated),9.646
CC(C)(O)CN1CC(C)(C)CN(C(=O)CCc2ccccc2)CC1=O,8.493
Cc1ccsc1C(Cc1ccccc1)NC(=O)CSCC(N)=O (configuration not stated),14.21
COc1ccc2cc(C3CN(C(=O)COC(C)C)CCO3)ccc2c1 (configuration not stated),2.089
Cn1cc(C(=O)CC2CCCN2C(=O)c2ccc3[nH]ncc3c2)cn1 (configuration not stated),6.115
O=C(NCc1ccccc1F)Nc1ccn(CCN2CCOCC2)n1,15.85
CCN1CCn2c(C)cnc2C12CCN(C(=O)c1ccc(Cl)cc1)CC2,10.46
Cc1ccc(C)c(C(=O)CN2C(=O)c3ccccc3CS2(=O)=O)c1,5.435
O[C@H]1CN(c2nc(-c3ccccc3)no2)C[C@@H]1N1CCOCC1,4.897
Cc1cccc(N2N=C(C(=O)NC(C)Cn3cccn3)CCC2=O)c1 (configuration not stated),11.94
O=C(CCOc1ccc(Cl)cc1)N1CCN(c2cnccn2)CC1,14.29
CC(C)c1cc(CN(C)C(=O)CN2CCNC2=O)no1,6.989
Cc1nn2c(N3CCCC(C#N)C3)cc(-c3ccccc3)nc2c1C (configuration not stated),12.77
COCCNC(=O)c1cc(C(C)C)nc(N2CCCC2)n1,-4.774
CCc1ccc(C(=O)N2CCC(c3nncn3CC)CC2)cc1,9.155
OCCN1CCC(c2csc(Nc3cnccn3)n2)CC1,7.233
COCc1nn(C(C)C)c2c1CCN(Cc1nccs1)C2,5
Cc1cc(N2C[C@H](NC(=O)C3(C#N)CCOCC3)[C@@H](C(C)C)C2)ccn1,7.508
Cc1nnc(C2Cc3ccccc3CN2Cc2nc(C3CC3)no2)o1 (configuration not stated),17.74
CCCN1CCC2(C1)c1ccccc1S(=O)(=O)N2Cc1ccc(F)cc1 (configuration not stated),7.268
Cc1csc2nc3n(c(=O)c12)CCN(Cc1ccccn1)CC3,21.86
Cc1nnc(NCCc2coc(-c3ccc(F)cc3)n2)c(C#N)c1C,9.021
N#CC1(NC(=O)COC(=O)Cc2cc(Cl)c3c(c2)OCCO3)CCCC1,6.366
Cn1ccc2c(C(=O)N3CCN(C(=O)C4CCCC4)CC3)cccc21,9.492
O=C(c1cccc(Cl)c1Cl)N1CCN(CC(O)Cn2cccn2)CC1 (configuration not stated),10.48
CCc1nc(CN2CCCN(C(=O)c3cncnc3C)CC2)cs1,10.97
COCCN(Cc1ccncc1)C(=O)CCSCc1ccc(F)cc1,14.34
COc1ccc(CNC(=O)NC(C)(CO)C2CC2)c(C(F)(F)F)c1 (configuration not stated),8.189
COCCN1C(=O)CO[C@H]2CN(Cc3cccc(OC)c3F)C[C@@H]21,13.56
COCC1Cn2nnc(-c3cnn(C)c3)c2CN1Cc1ccoc1 (configuration not stated),9.936
Cc1ccc(C2CN(Cc3cccc4[nH]ccc34)CCO2)nc1 (configuration not stated),-5.806
CCN1CC(C(=O)N2CCN(c3cnn(C)c(=O)c3)CC2)CCC1=O (configuration not stated),19.48
CC(=O)Nc1ccccc1Sc1nc(Br)nn1C,7.726
CC(C)(C)c1ncc(C(=O)NCCNC(=O)c2ccccc2)s1,17.32
CCc1noc(CN2CCCN(C(N)=O)CC2)n1,1.408
CC(=O)N1CC[C@@H]2CN(C(=O)c3ccco3)CCO[C@@H]2C1,6.62
CCn1c(C2CCN(C(=O)COCC(F)(F)C(F)F)CC2)n[nH]c1=O,-3.686
N#Cc1cc2cc(Cl)cnc2nc1O,18.87
c1nc2n(c1CN1CCCCC1)CCN(C1CCOC1)CC2 (configuration not stated),13.7
CC(C)c1nc(-c2cc(C(=O)NCCN(C)C)c3ccccn23)cs1,13.59
Cc1cccc(N2CC[C@H]3[C@H](CO[C@@H]3CN(C)Cc3ccco3)C2)n1,13.74
CC(NC1(CNC(=O)NC2CC2)CCOCC1)c1ccccc1 (configuration not stated),3.106
O=S(=O)(c1ccc(Cl)s1)N1CCCC(c2ncc[nH]2)C1 (configuration not stated),5.974
Cn1cc(C(=O)NCC2CCN(C(=O)NCC(F)(F)F)CC2)cn1,25
Cn1nc(C(=O)N2CCOCC2)c2c1CN(CC1CC1)C2,19.64
CCN(CC)S(=O)(=O)N(Cc1ccccn1)Cc1ccccc1C,2.538
NC(=O)CC1CC2(CCNCC2)c2cc(F)ccc21 (configuration not stated),10.56

For reference, 4 entries once more:

structure,Inhibition
O=C(c1cccc(Cl)c1Cl)N1CCN(CC(O)Cn2cccn2)CC1 (configuration not stated),10.48
CCc1nc(CSc2nnc(N)n2C2CC2)no1,14.89
CCN1CC(C(=O)N2CCN(c3cnn(C)c(=O)c3)CC2)CCC1=O (configuration not stated),19.48
CC(C)c1cc(CN(C)C(=O)CN2CCNC2=O)no1,6.989